Patent publication US20160046678A1 (ZYNGENIA, published 2016)
No constants are given. Whether binding was seen depends on the method and setting. Some results given as binding are weak or reduced against the parent protein; the word gives no strength.

B1: TLA426 (peptide)
peptide: DLEVCWDFDVDRLVYCEAPI
B2: TLA435 (peptide)
peptide: YYEVCWDLNLDRLVYCDVNK
B3: TLA460 (peptide)
peptide: DYAVCWDFDEDRLVYCVGPL
B4: TLA415 (peptide)
peptide: DDQVCWDVKIDRLVYCEALM
B5: TLA453 (peptide)
peptide: EYEVCWDFQVDRLVYCMAIT
B6: TLA440 (peptide)
peptide: DYEVCWDVDVDRLVYCDGPK
B7: TLA428 (peptide)
peptide: SYAVCWDFDLERLVYCEIPL
B8: TLA412 (peptide)
peptide: NHDVCWEFHLDRLVYCDGPS
B9: TLA436 (peptide)
peptide: NYQVCWDFDLDRLVYCGAHK
B10: TLA450 (peptide)
peptide: HYDVCWDYHLDRLVYCNRHM
B11: TLA448 (peptide)
peptide: DYDVCWDDYLDRLVYCEARI
B12: TLA439 (peptide)
peptide: YSDVCWDFYYDRLVYCDASI
B13: TLA495 (peptide)
peptide: HVELCFDKMRYCIMEL
B14: TLA485 (peptide)
peptide: LVSSCPYGTPSAVCNGMW
B15: TLA468 (peptide)
peptide: VPEVCQWEFVKCLWNA
B16: TLA408 (peptide)
peptide: DYEVCWDFLLDRLVYCDAPI
B17: TLA430 (peptide)
peptide: KYEVCWDEHIDRLVYCDVPM
B18: TLA427 (peptide)
peptide: GFEVCWDVDLDRLVFCAASE
B19: TLA442 (peptide)
peptide: DYDVCWDFDFERLVFCNSSM
B20: TLA416 (peptide)
peptide: HSDVCWDFDIDRLVFCDTLI
B21: TLA422 (peptide)
peptide: DYDVCWDFDLDRLVYCSGPL
B22: TLA446 (peptide)
peptide: DYEVCWDVHAERLYYCDAPI
B23: TLA447 (peptide)
peptide: DHEVCWDEHVDRLVYCYKAI
B24: TLA475 (peptide)
peptide: AAWQCLDPEWWVCVMLN
B25: TLA521 (peptide)
peptide: QDRVCWDFHLQKLQFCELSM
B26: TLA410 (peptide)
peptide: DYEVCWDFDFDRLVFCEAVM
B27: TLA413 (peptide)
peptide: DYEVCWDVQLEHLVYCEAPI
B28: TLA423 (peptide)
peptide: DYEVCWDDHVDRLVYCDRTL
B29: TLA491 (peptide)
peptide: EDFLCYPAPWVLSAAGT
B30: TLA431 (peptide)
peptide: YSDVCWDFDLDRLVYCEAHL
B31: TLA454 (peptide)
peptide: DYEVCWDIIVDRLVYCEAPP
B32: TLA445 (peptide)
peptide: EYEVCWDVNVDRLVWCYATM
B33: TLA441 (peptide)
peptide: DYAVCWDDHVEHLVYCDASW
B34: TLA420 (peptide)
peptide: DYEVCWDFDLDRLVYCDSDV
B35: TLA519 (peptide)
peptide: TLLACQLKFIKCLNNW
B36: TLA464 (peptide)
peptide: SDWACPMYMHEIECSVRW
B37: TLA444 (peptide)
peptide: DYDVCWDEHLDRLVYCNGLG
B38: TLA425 (peptide)
peptide: HYEVCWDAHFDRLVYCEAPI
B39: TLA421 (peptide)
peptide: DYEVCWDDHLDRLVYCDAPG
B40: TLA459 (peptide)
peptide: EYDVCWDFQLDRLVYCDSQM
B41: TLA457 (peptide)
peptide: DYEVCWDFREDRLVYCDSIM
B42: TLA455 (peptide)
peptide: YYEVCWDLYLDRLVFCNADL
B43: TLA419 (peptide)
peptide: DYDVCWDEDVDRLVYCEPPI
B44: TLA432 (peptide)
peptide: DYEVCWDVNLDRLVYCAGPM
B45: TLA452 (peptide)
peptide: EYDVCWDVDLDRLVYCATTY
B46: TLA411 (peptide)
peptide: DYDVCWDVNADRLVYCNAIL
B47: TLA424 (peptide)
peptide: DYEVCWDPHVDRLVYCDAPA
B48: TLA433 (peptide)
peptide: HYDVCWDDQVDRLVYCHAPL
B49: TLA437 (peptide)
peptide: DYEVCWDVYFGRLVYCDVLM
B50: TLA489 (peptide)
peptide: GTVYCQPYMSVMECAFRA
B51: TLA493 (peptide)
peptide: VSGGCPSYMNQWECVFRW
B52: TLA461 (peptide)
peptide: SERDCNIQKMRKVPCLVML
B53: TLA458 (peptide)
peptide: DYAVCWDFHLNRLVYCDVPV
B54: TLA520 (peptide)
peptide: LVFLCPGYRAQHHCVLLS
B55: TLA451 (peptide)
peptide: DYEVCWDIHLDHLVYCDAPW
B56: TLA434 (peptide)
peptide: EYDVCWDFDIDRLVYCVPLS
B57: TLA418 (peptide)
peptide: DYEVCWDIHLDRLVYCNTPM
B58: TLA429 (peptide)
peptide: DHEVCWDFELDRLVYCYKAK
B59: TLA409 (peptide)
peptide: DWEVCWDVHLDRLVFCETLI
B60: TLA443 (peptide)
peptide: DYAVCWDDHFDRLVYCDWTT
B61: TLA438 (peptide)
peptide: EYVVCWDTEVDHLVYCDAAM

Biological target: T1, TL1A (UniProt O95150)
T1 sequence (looked up): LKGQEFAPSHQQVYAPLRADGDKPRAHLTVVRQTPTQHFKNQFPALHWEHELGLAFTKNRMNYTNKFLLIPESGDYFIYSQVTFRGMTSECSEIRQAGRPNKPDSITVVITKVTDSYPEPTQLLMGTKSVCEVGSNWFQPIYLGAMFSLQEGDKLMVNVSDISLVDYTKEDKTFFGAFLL
Assay: peptide selection, Example 48

binding, binds:
B1
B2
B3
B4
B5
B6
B7
B8
B9
B10
B11
B12
B13
B14
B15
B16
B17
B18
B19
B20
B21
B22
B23
B24
B25
B26
B27
B28
B29
B30
B31
B32
B33
B34
B35
B36
B37
B38
B39
B40
B41
B42
B43
B44
B45
B46
B47
B48
B49
B50
B51
B52
B53
B54
B55
B56
B57
B58
B59
B60
B61
